PubChem BioAssay AID2551 (National Center for Advancing Translational Sciences (NCATS), 2010)
Hit rate of the full screen: of about 310,000 compounds, about 17,000 (5.5%) were called active. This list was built around the results that the source calls inconclusive (neither active nor inactive); the mix of calls is not that of the screen. Calls come from the whole dose curve; as a rule, active = well fitted inhibition curve with a large enough effect; inconclusive = small, poorly fitted or top-dose-only effect, or effect the other way; inactive = no such curve, though single readings can be large or run the other way. Where the call is inconclusive, the potency comes from a doubtful curve fit.

By UniProt entry, the sequences of proteins in these tests, tags left out. Where a name states a change or a piece, a line headed by the entry shows the natural chain unless it says otherwise.
UniProt P51450: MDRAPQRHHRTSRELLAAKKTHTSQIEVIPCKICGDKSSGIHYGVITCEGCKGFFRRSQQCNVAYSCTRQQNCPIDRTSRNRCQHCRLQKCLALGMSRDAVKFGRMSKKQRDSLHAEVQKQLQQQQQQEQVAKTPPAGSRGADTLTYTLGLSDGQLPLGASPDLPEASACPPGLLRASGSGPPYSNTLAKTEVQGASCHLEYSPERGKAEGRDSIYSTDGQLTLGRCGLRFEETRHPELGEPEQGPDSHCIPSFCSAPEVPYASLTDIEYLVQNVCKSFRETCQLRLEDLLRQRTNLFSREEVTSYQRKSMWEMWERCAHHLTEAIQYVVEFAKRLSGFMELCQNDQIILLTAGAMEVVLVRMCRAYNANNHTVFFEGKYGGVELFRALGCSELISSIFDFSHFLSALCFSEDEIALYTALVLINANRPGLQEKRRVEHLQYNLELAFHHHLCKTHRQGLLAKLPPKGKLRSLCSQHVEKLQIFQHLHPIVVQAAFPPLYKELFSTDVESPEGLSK

biological target: Nuclear receptor ROR-gamma (Mus musculus) (UniProt P51450); experiment: qHTS for inhibitors of ROR gamma transcriptional activity; conditions: Drosophila S2 Gal4-RORgamma UAS-luciferase reporter, 20 h; activity change, negative = inhibition: at 53.6 µM (top of the series); note: nearly all actives have a fitted effect of over 60% in size
In short: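 ROR gamma transcriptional activity was tracked as Gal4-UAS luciferase output in stably transfected Drosophila Schneider cells, with compound added 1 hr before 700 uM copper sulfate induction and a 20 hr ambient-temperature incubation.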
% is set by controls: 0 for no effect and ±100 for the full control effect; potency is the fitted concentration of half-maximal effect.

Potency, active:
COc1ccc(C(=O)/C(=C/c2cccs2)c2nc3ccccc3o2)cc1 3.16 µM
COc1cccc(-n2nnnc2SCC(=O)N2CCCc3ccccc32)c1 20 µM
CCOC(=O)c1c(C)oc2c1c(C=NCCO)c(O)c1ccccc12 11.2 µM
Cc1ccc(NC(=S)Nc2cccc(S(=O)(=O)Nc3c(C)n(C)n(-c4ccccc4)c3=O)c2)cc1 11.2 µM
Cc1cccc(NC(=S)N/N=C/C(C)c2ccccc2)c1C (stereo unspecified) 1.26 µM
S=c1[nH]c2ccccc2n2cccc12 0.891 µM
CCOCCCNC(=S)NCCCNc1nc2ccc(C)cc2cc1C#N 6.31 µM
Cc1ccc(NC(=S)N(CCN2CCOCC2)Cc2ccccc2F)cc1Cl 10 µM
Cc1cc(=O)[nH]c(-n2nc(C)cc2C)n1 1.58 µM
S=C(NCCN(C1CCCCC1)C1CCCC1)Nc1cccc(Cl)c1 17.8 µM

Potency, inconclusive:
O=C(CN1CCN(c2ccc(F)cc2)CC1)OCc1ccccc1 3.16 µM [activator, partial curve]
Cc1ccc(Cn2nc(C)c(NC(=O)c3nn(C)cc3Cl)c2C)cc1 3.98 µM [activator, full curve, poor fit]
Cc1cccc(-n2c(N)cc(=O)nc2SCC(=O)Nc2ccccc2)c1 35.5 µM [activator, single point]
O=C(c1cc2cc(F)ccc2[nH]1)N1CCc2ccccc2C1 14.1 µM [activator, single point]
CCOc1cccc2sc(N(CCCN(C)C)C(=O)c3ccc(S(=O)(=O)N4CCc5ccccc5C4)cc3)nc12 35.5 µM [inhibitor, single point]
CN(C)CCCOc1nc2c(c(=O)n(C)c(=O)n2C)n1C 4.47 µM [activator, full curve]
COc1ccc(OC)c2sc(NNC(=O)COc3ccccc3)nc12 3.98 µM [inhibitor, full curve]
COC(=O)c1cccc(S(=O)(=O)N(Cc2ccco2)Cc2cc3ccc(OC)cc3[nH]c2=O)c1 2.51 µM [activator, single point]
CCN(CC)C(=O)CN(c1ccc2c(c1)OCO2)S(C)(=O)=O 0.501 µM [inhibitor, single point]
Cc1ccc(-n2c(SCC(=O)N3CC(=O)Nc4ccccc43)nc3ccccc3c2=O)cc1 15.8 µM [activator, partial curve, poor fit]
CN(c1ccccc1)S(=O)(=O)c1ccc(NC(=O)c2ccccc2)cc1 5.01 µM [activator, partial curve, poor fit]
CC(C)c1ccc(C(C(=O)NC(C)(C)C)N(C(=O)CNC(=O)c2ccco2)c2cccnc2)cc1 (stereo unspecified) 5.01 µM [activator, single point]
O=C(c1ccccc1)c1ccc(N2CCN(C(=O)c3cccc(F)c3F)CC2)c(F)c1 6.31 µM [activator, single point]
CC(=O)c1c(C)[nH]c(C(=O)OCC(=O)Nc2cc(Cl)ccc2[N+](=O)[O-])c1C 2.51 µM [activator, partial curve]
O=C(Nc1cccc(Cl)c1)c1cc(S(=O)(=O)N2CCOCC2)cs1 5.62 µM [activator, full curve, poor fit]
Cc1cc2c(ncn2Cc2ccccc2)c(N)c1C 11.2 µM [inhibitor, single point]
CCOC(=O)c1c(C)[nH]c(C)c1C(=O)COC(=O)c1cc2ccccc2cc1O 11.2 µM [activator, partial curve]
O=C(/C=C/c1ccco1)N1CCC(Cc2ccccc2)CC1 14.1 µM [activator, partial curve]
COc1ccccc1OCC(=O)N/N=C1/C=C(C)CC1 35.5 µM [inhibitor, single point]
O=C(CCNc1ccc(Cl)c(C(F)(F)F)c1)c1ccco1 35.5 µM [inhibitor, single point]
CCOC(=O)C(C)Oc1ccc2c(-c3cccc([N+](=O)[O-])c3)cc(=O)oc2c1 (stereo unspecified) 11.2 µM [activator, single point]
CCOC(=O)CNC(=O)Cn1cnc2c(nnn2-c2cccc(Cl)c2)c1=O 25.1 µM [inhibitor, partial curve, poor fit]
CN1C(=O)/C(=C/c2cccc(Cl)c2)Sc2ccc(C(=O)NCc3cccnc3)cc21 12.6 µM [activator, single point]
COc1cc(NC(=O)CCCc2c[nH]c3ccccc23)cc(OC)c1 11.2 µM [activator, partial curve]
CN(C)S(=O)(=O)c1cccc(NC(=O)CCc2c[nH]c3ccccc23)c1 25.1 µM [activator, single point]
CCn1c(SC)nnc1-c1nnc(SC)n1CC 6.31 µM [inhibitor, single point]
COc1ccc2c(c1OC)C(=O)OC2Nc1nc(-c2cc3ccccc3oc2=O)cs1 (stereo unspecified) 11.2 µM [inhibitor, single point]

Pulled by structure from the list above, three records:
Potency, inconclusive:
Cc1ccc(Cn2nc(C)c(NC(=O)c3nn(C)cc3Cl)c2C)cc1 3.98 µM [activator, full curve, poor fit]
CCOC(=O)c1c(C)[nH]c(C)c1C(=O)COC(=O)c1cc2ccccc2cc1O 11.2 µM [activator, partial curve]
O=C(/C=C/c1ccco1)N1CCC(Cc2ccccc2)CC1 14.1 µM [activator, partial curve]

Next part:

Activity change, negative = inhibition, inactive:
CN(CC(=O)Nc1cccc(F)c1)C(=O)/C=C/c1ccc2ccccc2n1 12.2%
CO/N=C(\CCC(=O)O)c1cccs1 -9.31%
O=C(NC1c2ccccc2-c2ccccc21)c1ccccc1 -2.69%
COc1cccc(N=Nc2c(=O)[nH]n3c(=O)cc(C)[nH]c23)c1 5.27%
Cc1ccc(NC(=O)Cn2nc(C)c3ccccc3c2=O)cc1F -2.39%
Cc1nc2c3c(-c4ccccc4)c(-c4ccccc4)oc3ncn2n1 0.228%
CCOC(=O)N1CCC(NS(=O)(=O)c2ccc3c(c2)C(C)(C)C(=O)N3C)CC1 -7.4%
COc1ccc(N(CC(=O)NCc2ccco2)C(=O)CCC(=O)Nc2ccccn2)cc1 9.14%
N#Cc1cc2c(nc1SCc1ccccc1)CCCCC2 11%
